# Data as given in PubChem BioAssay (EPA / NIEHS).
# The chains behind the UniProt entries cited, without tags or fusion partners. Where a name states a change or a piece, a line headed by the entry shows the natural chain unless it says otherwise.
# UniProt P15149: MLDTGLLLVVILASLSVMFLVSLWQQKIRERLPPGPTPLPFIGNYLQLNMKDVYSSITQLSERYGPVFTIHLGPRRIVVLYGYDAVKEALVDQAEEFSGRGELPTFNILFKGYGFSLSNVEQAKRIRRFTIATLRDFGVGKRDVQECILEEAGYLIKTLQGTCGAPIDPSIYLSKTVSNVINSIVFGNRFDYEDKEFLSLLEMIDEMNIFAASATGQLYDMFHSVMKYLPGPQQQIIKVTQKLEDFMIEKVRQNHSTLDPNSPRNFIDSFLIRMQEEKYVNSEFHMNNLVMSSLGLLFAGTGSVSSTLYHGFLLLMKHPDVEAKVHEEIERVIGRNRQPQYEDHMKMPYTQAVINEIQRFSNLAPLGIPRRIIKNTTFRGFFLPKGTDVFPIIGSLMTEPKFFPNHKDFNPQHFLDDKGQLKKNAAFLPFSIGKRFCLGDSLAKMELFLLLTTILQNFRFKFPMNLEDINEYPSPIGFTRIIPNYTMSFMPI
# UniProt P20814, whole entry, looked up: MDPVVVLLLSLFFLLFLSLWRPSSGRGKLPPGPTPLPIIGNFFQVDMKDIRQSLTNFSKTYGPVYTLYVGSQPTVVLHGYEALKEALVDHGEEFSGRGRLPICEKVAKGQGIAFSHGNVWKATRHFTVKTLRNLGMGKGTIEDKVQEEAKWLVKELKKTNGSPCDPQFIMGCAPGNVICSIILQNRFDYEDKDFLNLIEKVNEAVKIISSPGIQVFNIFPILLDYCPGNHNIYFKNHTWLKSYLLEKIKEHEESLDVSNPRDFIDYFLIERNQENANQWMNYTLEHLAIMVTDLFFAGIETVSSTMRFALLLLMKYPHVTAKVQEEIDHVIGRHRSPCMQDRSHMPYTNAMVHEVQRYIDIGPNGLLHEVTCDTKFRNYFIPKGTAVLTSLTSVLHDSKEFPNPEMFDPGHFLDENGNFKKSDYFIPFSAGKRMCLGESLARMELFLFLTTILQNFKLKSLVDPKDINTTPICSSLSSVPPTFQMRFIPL
# UniProt P10634: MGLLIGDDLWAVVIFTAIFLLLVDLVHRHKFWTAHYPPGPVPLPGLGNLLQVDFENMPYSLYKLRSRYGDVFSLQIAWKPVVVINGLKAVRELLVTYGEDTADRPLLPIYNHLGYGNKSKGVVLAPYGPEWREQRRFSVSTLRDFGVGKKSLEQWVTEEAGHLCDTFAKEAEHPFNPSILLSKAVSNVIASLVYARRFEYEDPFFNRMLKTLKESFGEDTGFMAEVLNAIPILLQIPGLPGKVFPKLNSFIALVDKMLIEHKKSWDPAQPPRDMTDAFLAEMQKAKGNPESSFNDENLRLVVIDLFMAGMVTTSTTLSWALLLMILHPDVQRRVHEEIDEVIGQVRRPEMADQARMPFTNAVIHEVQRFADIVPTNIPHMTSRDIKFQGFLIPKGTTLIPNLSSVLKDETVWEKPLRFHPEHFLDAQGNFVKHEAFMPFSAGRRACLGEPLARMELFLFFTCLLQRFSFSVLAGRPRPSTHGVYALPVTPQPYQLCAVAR
# UniProt P42575: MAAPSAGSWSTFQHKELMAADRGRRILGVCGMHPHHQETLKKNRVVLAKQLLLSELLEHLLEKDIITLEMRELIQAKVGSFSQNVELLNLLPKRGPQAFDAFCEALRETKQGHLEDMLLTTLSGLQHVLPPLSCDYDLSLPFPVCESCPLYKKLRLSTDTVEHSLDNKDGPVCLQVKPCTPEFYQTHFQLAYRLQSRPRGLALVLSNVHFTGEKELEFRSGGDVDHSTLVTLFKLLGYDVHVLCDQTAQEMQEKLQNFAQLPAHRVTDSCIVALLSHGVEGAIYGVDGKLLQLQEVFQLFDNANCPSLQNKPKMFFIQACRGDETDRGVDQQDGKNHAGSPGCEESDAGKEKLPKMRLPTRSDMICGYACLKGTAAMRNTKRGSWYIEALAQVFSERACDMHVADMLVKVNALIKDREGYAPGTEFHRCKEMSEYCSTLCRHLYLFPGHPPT
# UniProt P24666: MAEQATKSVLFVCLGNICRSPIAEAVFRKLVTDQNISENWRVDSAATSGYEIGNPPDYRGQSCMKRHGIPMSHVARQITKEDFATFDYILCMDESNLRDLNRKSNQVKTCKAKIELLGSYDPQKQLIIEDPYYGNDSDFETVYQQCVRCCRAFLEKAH
# UniProt P31751: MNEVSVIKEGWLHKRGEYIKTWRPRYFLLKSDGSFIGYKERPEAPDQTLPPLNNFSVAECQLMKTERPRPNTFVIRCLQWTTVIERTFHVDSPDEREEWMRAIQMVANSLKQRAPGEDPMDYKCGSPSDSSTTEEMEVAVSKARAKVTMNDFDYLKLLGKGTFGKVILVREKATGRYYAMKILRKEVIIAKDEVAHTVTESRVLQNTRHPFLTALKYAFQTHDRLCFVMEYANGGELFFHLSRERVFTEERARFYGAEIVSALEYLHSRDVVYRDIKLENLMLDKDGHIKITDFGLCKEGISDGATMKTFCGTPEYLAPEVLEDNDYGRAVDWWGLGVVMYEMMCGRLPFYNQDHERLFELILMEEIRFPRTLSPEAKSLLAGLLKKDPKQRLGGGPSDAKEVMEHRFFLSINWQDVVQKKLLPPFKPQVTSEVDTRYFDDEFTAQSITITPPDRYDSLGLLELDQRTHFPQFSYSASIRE
# UniProt P56817: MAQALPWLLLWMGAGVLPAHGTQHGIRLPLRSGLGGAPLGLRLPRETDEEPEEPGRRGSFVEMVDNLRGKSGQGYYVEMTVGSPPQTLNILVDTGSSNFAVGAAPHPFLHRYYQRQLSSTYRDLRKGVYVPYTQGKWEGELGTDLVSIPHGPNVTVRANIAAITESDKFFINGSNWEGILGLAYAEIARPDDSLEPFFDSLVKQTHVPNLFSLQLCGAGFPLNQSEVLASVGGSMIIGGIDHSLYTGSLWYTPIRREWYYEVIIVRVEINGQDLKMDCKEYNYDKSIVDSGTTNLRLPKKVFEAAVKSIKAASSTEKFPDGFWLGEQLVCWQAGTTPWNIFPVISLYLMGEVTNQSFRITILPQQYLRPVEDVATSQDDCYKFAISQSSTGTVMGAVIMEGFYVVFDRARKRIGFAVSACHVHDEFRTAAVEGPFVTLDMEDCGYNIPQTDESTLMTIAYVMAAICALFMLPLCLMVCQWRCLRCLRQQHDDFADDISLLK
# UniProt O14965: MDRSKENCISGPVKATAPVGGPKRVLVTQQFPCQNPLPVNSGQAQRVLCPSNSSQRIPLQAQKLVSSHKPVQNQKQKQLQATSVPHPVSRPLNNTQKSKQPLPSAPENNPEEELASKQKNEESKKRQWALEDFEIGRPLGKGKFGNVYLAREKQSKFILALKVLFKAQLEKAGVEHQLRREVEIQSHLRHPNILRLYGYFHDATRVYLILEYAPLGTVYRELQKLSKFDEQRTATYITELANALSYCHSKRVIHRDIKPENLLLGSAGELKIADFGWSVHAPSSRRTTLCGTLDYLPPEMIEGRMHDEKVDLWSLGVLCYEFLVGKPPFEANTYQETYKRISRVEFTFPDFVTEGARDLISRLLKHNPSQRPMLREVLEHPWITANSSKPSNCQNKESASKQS
# UniProt P51878: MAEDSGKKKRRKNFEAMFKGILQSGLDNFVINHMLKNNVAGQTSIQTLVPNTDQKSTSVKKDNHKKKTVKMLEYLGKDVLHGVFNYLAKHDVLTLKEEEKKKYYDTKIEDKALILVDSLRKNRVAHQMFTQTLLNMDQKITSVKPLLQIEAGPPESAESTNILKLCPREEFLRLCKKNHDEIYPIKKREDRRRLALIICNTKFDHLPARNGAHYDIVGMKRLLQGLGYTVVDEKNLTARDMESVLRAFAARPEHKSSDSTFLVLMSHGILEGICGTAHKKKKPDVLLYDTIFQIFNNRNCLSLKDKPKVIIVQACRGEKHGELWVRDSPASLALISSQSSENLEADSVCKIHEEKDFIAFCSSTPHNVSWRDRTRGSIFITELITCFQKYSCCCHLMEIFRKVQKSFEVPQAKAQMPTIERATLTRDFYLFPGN
# UniProt P31749: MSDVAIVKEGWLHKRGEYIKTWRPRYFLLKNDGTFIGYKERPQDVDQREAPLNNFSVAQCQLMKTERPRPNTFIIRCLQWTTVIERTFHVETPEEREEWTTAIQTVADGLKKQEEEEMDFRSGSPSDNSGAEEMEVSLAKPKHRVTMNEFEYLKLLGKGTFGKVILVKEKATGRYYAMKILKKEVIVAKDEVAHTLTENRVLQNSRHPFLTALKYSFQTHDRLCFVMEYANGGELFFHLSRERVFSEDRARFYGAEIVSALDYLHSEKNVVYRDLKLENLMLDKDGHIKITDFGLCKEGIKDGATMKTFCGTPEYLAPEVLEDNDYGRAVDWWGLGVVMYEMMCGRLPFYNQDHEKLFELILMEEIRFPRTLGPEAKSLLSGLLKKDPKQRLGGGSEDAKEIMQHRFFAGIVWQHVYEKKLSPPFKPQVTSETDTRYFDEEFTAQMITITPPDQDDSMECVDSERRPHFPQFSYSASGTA
# UniProt P29466: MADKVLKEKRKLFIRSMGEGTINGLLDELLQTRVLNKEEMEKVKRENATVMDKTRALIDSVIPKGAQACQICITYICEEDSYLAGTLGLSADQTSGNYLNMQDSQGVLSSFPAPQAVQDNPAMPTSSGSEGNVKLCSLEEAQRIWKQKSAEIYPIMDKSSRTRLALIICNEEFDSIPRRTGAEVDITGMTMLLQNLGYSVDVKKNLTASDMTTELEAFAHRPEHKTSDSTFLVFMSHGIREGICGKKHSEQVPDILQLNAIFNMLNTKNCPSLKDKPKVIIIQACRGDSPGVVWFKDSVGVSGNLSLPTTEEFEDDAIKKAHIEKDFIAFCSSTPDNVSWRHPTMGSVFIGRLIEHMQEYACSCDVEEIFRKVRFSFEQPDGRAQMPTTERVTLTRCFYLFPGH
# UniProt Q92851: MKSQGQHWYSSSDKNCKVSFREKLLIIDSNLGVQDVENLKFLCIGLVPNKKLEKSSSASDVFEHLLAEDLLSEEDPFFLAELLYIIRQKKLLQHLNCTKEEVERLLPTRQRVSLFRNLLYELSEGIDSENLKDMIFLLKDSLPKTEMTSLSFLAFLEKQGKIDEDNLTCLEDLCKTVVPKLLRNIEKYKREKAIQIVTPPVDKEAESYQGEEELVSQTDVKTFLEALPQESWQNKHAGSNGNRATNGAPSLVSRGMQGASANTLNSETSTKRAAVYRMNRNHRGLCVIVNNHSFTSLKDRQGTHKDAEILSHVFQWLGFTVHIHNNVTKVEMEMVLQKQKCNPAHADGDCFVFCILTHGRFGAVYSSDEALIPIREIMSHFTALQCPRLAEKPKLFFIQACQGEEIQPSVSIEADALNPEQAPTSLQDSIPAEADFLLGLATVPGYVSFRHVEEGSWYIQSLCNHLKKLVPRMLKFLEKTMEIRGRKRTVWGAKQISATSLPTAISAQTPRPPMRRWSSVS
# UniProt P49662: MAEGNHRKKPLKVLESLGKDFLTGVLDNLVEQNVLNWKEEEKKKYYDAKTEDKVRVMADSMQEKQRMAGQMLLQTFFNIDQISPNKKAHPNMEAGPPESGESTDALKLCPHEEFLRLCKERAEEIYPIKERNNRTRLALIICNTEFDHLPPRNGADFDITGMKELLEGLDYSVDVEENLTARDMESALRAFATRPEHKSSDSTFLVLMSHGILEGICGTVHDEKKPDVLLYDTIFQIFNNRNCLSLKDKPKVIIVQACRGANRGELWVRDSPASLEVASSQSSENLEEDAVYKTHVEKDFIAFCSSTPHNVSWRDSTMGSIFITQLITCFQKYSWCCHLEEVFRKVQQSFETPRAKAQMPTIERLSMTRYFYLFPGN
# UniProt P42574: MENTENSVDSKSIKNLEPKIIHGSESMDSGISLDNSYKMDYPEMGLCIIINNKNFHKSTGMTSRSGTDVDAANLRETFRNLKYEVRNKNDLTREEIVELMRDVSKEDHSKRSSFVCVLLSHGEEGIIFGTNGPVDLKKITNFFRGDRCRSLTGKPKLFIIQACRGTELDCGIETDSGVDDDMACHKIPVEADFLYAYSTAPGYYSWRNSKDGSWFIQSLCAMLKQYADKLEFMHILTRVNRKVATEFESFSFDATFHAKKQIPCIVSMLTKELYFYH
# UniProt Q13131: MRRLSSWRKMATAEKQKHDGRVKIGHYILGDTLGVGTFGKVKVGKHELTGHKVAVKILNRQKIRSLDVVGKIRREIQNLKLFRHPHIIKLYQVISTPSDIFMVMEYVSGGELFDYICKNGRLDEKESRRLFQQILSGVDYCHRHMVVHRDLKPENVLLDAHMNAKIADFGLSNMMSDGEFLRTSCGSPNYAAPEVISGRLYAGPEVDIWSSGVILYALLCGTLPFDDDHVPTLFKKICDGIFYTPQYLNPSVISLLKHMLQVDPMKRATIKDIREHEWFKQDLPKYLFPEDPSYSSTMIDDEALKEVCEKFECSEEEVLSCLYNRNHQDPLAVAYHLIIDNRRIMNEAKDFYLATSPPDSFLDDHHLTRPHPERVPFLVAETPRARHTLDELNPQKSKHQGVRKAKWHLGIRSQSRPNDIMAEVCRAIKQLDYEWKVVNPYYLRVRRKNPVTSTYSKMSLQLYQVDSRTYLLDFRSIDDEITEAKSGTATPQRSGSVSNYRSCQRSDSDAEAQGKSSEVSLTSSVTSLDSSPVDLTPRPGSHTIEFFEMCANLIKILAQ
# Values joined by “and” are separate entries in the source; they are usually repeats but may differ in a detail not shown here. Equal values may be shown once. This list was built around the results that the source calls inconclusive (neither active nor inactive); the mix of calls is not that of the screen. For some of these results: A potency beside an inconclusive call is a rough fit, not a confirmed value. A structure can be active in one record and inactive in another. Active and inactive are the calls of the source. The calls were made as follows: active = hit-call score of the fitted dose curve at least 0.9, where 1 is the maximum; inconclusive = response in the unintended direction; inactive = score below 0.9.
# Legend:
# [1] = biological target: rat CYP2A2, Cyp2a2 (gene 24895) (UniProt P15149); experiment: NVS_ADME_rCYP2A2: NovaScreen (NVS) CYP450-related Enzyme Activity (ADME) Assay for rat CYP2A2 (AID 2283116)
# Summary of the method: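 Cell-free recombinant rat CYP2A2 activity with fluorogenic substrate, fluorescence read 0.2 h after dosing. Chemicals screened at 10 uM in duplicate, hits then run in concentration-response up to 20 uM; signal loss versus acetonitrile baseline.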
# [2] = biological target: rat CYP2C13, Cyp2c13 (gene 171521) (UniProt P20814); experiment: NVS_ADME_rCYP2C13: NovaScreen (NVS) CYP450-related Enzyme Activity (ADME) Assay for rat CYP2C13 (AID 2283121)
# Summary of the method: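 Recombinant rat CYP2C13 with fluorogenic substrate, 0.75 h cell-free incubation; primary screen in duplicate at 10 uM, actives followed in concentration series. Fluorescence loss relative to acetonitrile control indicates inhibition.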
# [3] = biological target: rat CYP2D2, Cyp2d26 (gene 25053) (UniProt P10634); experiment: NVS_ADME_rCYP2D2: NovaScreen (NVS) CYP450-related Enzyme Activity (ADME) Assay for rat CYP2D2 (AID 2283124)
# Summary of the method: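 Recombinant rat CYP2D2 in a cell-free fluorogenic activity assay, fluorescence read 0.75 h after dosing. Primary screen in duplicate at 10 uM; actives re-run singly in concentration-response to 20 uM, relative to acetonitrile.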
# [4] = biological target: human Caspase 2 (CASP2), CASP2 (gene 835) (UniProt P42575); experiment: NVS_ENZ_hCASP2: NovaScreen (NVS) Enzymatic Assay for human Caspase 2 (CASP2) (AID 2283135)
# Summary of the method: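 E. coli-expressed enzyme in a cell-free protease assay, fluorescence read 1 h after dosing. Compounds at 25 uM in duplicate, with concentration-response up to 50 uM for hits; loss of signal against DMSO baseline.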
# [5] = biological target: human Acid Phosphatase 1 (ACP1), ACP1 (gene 52) (UniProt P24666); experiment: NVS_ENZ_hACP1: NovaScreen (NVS) Enzymatic Assay for human Acid Phosphatase 1 (ACP1) (AID 2283136)
# Summary of the method: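 Recombinant enzyme expressed in Sf9 cells, tested cell-free; activity read by fluorescence with electrophoretic mobility shift separation of substrate and product, 1.5 h after dosing. Primary screen in duplicate at 25 uM, actives then run in concentration series; loss of signal versus DMSO.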
# [6] = biological target: human AKT serine/threonine Kinase 2 (AKT2), AKT2 (gene 208) (UniProt P31751); experiment: NVS_ENZ_hAKT2: NovaScreen (NVS) Enzymatic Assay for human AKT serine/threonine Kinase 2 (AKT2) (AID 2283141)
# Summary of the method: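 Cell-free fluorescence/electrophoretic mobility shift readout of recombinant human AKT2 activity, 1 h after chemical dosing. Duplicate primary screen at 25 uM, then singleton concentration-response up to 50 uM; loss of signal versus DMSO baseline.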
# [7] = biological target: human Beta-secretase (BACE), BACE1 (gene 23621) (UniProt P56817); experiment: NVS_ENZ_hBACE: NovaScreen (NVS) Enzymatic Assay for human Beta-secretase (BACE) (AID 2283140);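 also: hits are inhibitors that reduce fluorescent substrate signal versus DMSO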
# Summary of the method: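 Compounds were first tested in duplicate at 25 uM, then actives in concentration series, against recombinant BACE1 from SF9 cells. Enzyme activity was measured by fluorescence intensity 1 hour after dosing, with DMSO as negative control.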
# [8] = biological target: human Aurora Kinase A - serine/threonine-protein Kinase 6 (AurA), AURKA (gene 6790) (UniProt O14965); experiment: NVS_ENZ_hAurA: NovaScreen (NVS) Enzymatic Assay for human Aurora Kinase A - serine/threonine-protein Kinase 6 (AurA) (AID 2283142)
# Summary of the method: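 Cell-free enzymatic assay with human Aurora A, 1 hour after dosing. Fluorescent substrate turnover detected after electrophoretic mobility shift separation of substrate and product. Screened at 25 uM, actives retested in concentration-response up to 50 uM.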
# [9] = biological target: human Caspase 5 (CASP5), CASP5 (gene 838) (UniProt P51878); experiment: NVS_ENZ_hCASP5: NovaScreen (NVS) Enzymatic Assay for human Caspase 5 (CASP5) (AID 2283137)
# Summary of the method: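 E. coli-derived enzyme, cell-free, 2 h incubation, fluorescence intensity. 25 uM duplicate single-point; hits → concentration series to 50 uM. DMSO baseline, positive/negative controls on every plate.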
# [10] = biological target: human AKT serine/threonine Kinase 1 (AKT1), AKT1 (gene 207) (UniProt P31749); experiment: NVS_ENZ_hAKT1: NovaScreen (NVS) Enzymatic Assay for human AKT serine/threonine Kinase 1 (AKT1) (AID 2283138)
# Summary of the method: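 Recombinant AKT1, specific substrate, cell-free; 1 h; fluorescence intensity/electrophoretic mobility shift. Duplicate single-point 25 uM, then singleton CRC max 50 uM. DMSO = negative control/baseline; signal loss = inhibition.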
# [11] = biological target: CDK2 (gene 1017) (UniProt P24941); experiment: NVS_ENZ_hCDK2: NovaScreen (NVS) Enzymatic Assay for human Cyclin-Cependent Kinase 2 (CDK2) (AID 2283144)
# Summary of the method: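 Cell-free recombinant human CDK2 with fluorescent substrate, product separated by electrophoretic mobility shift; 1 hr read. Primary screen at 25 uM in duplicate, actives retested in concentration-response up to 50 uM; loss of signal versus DMSO.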
# [12] = biological target: Caspase-1 (Homo sapiens) (UniProt P29466); experiment: NVS_ENZ_hCASP1: NovaScreen (NVS) Enzymatic Assay for human Caspase 1 (CASP1) (AID 2283132)
# Summary of the method: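 Cell-free enzymatic assay with E. coli-expressed recombinant protein; fluorescence intensity read 1 hour after dosing. Single-concentration duplicate screen at 25 uM, then concentration-response up to 50 uM; activity fitted relative to DMSO, loss of signal meaning inhibition.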
# [13] = biological target: human Caspase 10 (CASP10), CASP10 (gene 843) (UniProt Q92851); experiment: NVS_ENZ_hCASP10: NovaScreen (NVS) Enzymatic Assay for human Caspase 10 (CASP10) (AID 2283133)
# Summary of the method: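 Recombinant human caspase-10 from E. coli, cell-free fluorogenic substrate assay read 1 h after dosing. Primary duplicate screen at 25 uM; hits (e.g. ≥30% inhibition) run singly in concentration-response up to 50 uM, normalised to DMSO.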
# [14] = biological target: human Caspase 4 (CASP4), CASP4 (gene 837) (UniProt P49662); experiment: NVS_ENZ_hCASP4: NovaScreen (NVS) Enzymatic Assay for human Caspase 4 (CASP4) (AID 2283143)
# Summary of the method: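 The cell-free assay used E. coli-expressed enzyme with a fluorogenic substrate, read 2 h after dosing. Signal loss was scored versus DMSO. Screening was in duplicate at 25 uM, then singleton concentration-response up to 50 uM.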
# [15] = biological target: Caspase-3 (Homo sapiens) (UniProt P42574); experiment: NVS_ENZ_hCASP3: NovaScreen (NVS) Enzymatic Assay for human Caspase 3 (CASP3) (AID 2283139)
# Summary of the method: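 Recombinant human caspase-3 from E. coli with a fluorogenic substrate, read by fluorescence 1 h after dosing. Primary screen in duplicate at 25 uM. Actives (for example ≥30% inhibition) rerun as concentration-response up to 50 uM.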
# [16] = biological target: human AMP-activated Protein Kinase, alpha 1 (AMPKa1), PRKAA1 (gene 5562) (UniProt Q13131); experiment: NVS_ENZ_hAMPKa1: NovaScreen (NVS) Enzymatic Assay for human AMP-activated Protein Kinase, alpha 1 (AMPKa1) (AID 2283130)
# Summary of the method: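 Recombinant human AMPKα1 activity was measured cell-free by fluorescent substrate conversion with electrophoretic mobility-shift separation, 1 h after dosing. Duplicate single-point screening was at 25 uM; actives (≥30% inhibition) were retested in concentration-response up to 50 uM.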
structure (smiles),measurement,setting,value
CCCCNC(=O)OCC#CI,AC50,[1],active: 5.3 µM and active: 5.4 µM
Cc1ccn2nc(S(=O)(=O)Nc3c(F)cccc3F)nc2n1,AC50,[2],inconclusive: 0.0157 µM
O=CNC(N1CCN(C(NC=O)C(Cl)(Cl)Cl)CC1)C(Cl)(Cl)Cl (stereo unspecified),outcome,[2],inactive
Oc1ccc(Cl)cc1Cc1ccccc1,AC50,[3],active: 5.11 µM
CNC(=S)S,outcome,[4],inactive
same,AC50,[5],active: 9.04 µM
same,outcome,[6],inactive
CC(C)(C)OOC(C)(C)C,AC50,[5],inconclusive: 0.13 µM
same,AC50,[6],inconclusive: 13.1 µM
COP(=S)(OC)Oc1ccc(Sc2ccc(OP(=S)(OC)OC)cc2)cc1,AC50,[7],active: 2.51 µM
N#Cc1c(Cl)c(Cl)c(Cl)c(C#N)c1Cl,outcome,[8],inactive
O=C(O)C(F)(F)C(F)(F)C(F)(F)C(F)(F)C(F)(F)C(F)(F)F,AC50,[4],inconclusive: 3.24 µM
Nc1cccc2ccccc12,AC50,[9],active: 45.2 µM
CC1=C2C[C@H]3[C@@H](CC=C4C[C@@H](O)CC[C@@]43C)[C@@H]2CC[C@]12O[C@@H]1C[C@H](C)CN[C@H]1[C@H]2C,AC50,[10],inconclusive: 0.0835 µM
same,AC50,[6],active: 12.5 µM
same,outcome,[11],inactive
CCN(CC)C(=O)SCc1ccc(Cl)cc1,AC50,[10],inconclusive: 25 µM
CCOP(=S)(OCC)SCSCC,outcome,[10],inactive
CC(=O)[O][Hg][c]1ccccc1,AC50,[12],inconclusive: 0.205 µM
O=[N+]([O-])c1ccc(O)c([N+](=O)[O-])c1,AC50,[13],inconclusive: 0.22 µM
same,AC50,[6],inconclusive: 25 µM
O=C(O)C(F)(F)C(F)(F)C(F)(F)C(F)(F)C(F)(F)F,AC50,[4],inconclusive: 1.45 µM
same,AC50,[8],inconclusive: 25 µM
same,outcome,[11],inactive
CN1CSC(=S)N(C)C1,outcome,[12],inactive
CCNS(=O)(=O)C(F)(F)C(F)(F)C(F)(F)C(F)(F)C(F)(F)C(F)(F)C(F)(F)C(F)(F)F,outcome,[5],inactive
same,outcome,[6],inactive
same,outcome,[11],inactive
Cc1ccc([N+](=O)[O-])cc1C,AC50,[4],inconclusive: 2.4 µM
same,AC50,[14],inconclusive: 25 µM
Cn1cc(-c2ccccc2)c(=O)c(-c2cccc(C(F)(F)F)c2)c1,AC50,[5],inconclusive: 0.149 µM
CCOc1nc(F)cc2nc(S(=O)(=O)Nc3c(Cl)cccc3Cl)nn12,outcome,[10],inactive
O=[N+]([O-])c1ccc(Oc2ccc(Cl)cc2Cl)cc1,AC50,[5],inconclusive: 0.0719 µM
CCN(CC)c1nc(C)cc(OP(=S)(OC)OC)n1,AC50,[9],inconclusive: 0.892 µM
COc1ccc(C(=CC(=O)N2CCOCC2)c2ccc(Cl)cc2)cc1OC,outcome,[15],inactive
CO/C=C(/C(=O)OC)c1ccccc1Oc1cc(Oc2ccccc2C#N)ncn1,AC50,[12],inconclusive: 0.554 µM
same,AC50,[10],active: 14.7 µM
same,outcome,[14],inactive
CSc1nc(NC(C)C)nc(NC(C)C)n1,outcome,[12],inactive
same,outcome,[6],inactive
N#Cc1cccnc1,AC50,[10],inconclusive: 6.96 µM
same,AC50,[6],inconclusive: 0.06 µM
Oc1cc(Cl)ccc1Oc1ccc(Cl)cc1Cl,AC50,[13],inconclusive: 6.94 µM
same,AC50,[4],inconclusive: 0.243 µM
same,AC50,[10],inconclusive: 25.5 µM
same,AC50,[15],inconclusive: 25.5 µM
same,outcome,[7],inactive
same,AC50,[6],active: 41.4 µM
CCCN(CCC)c1c([N+](=O)[O-])cc(S(N)(=O)=O)cc1[N+](=O)[O-],AC50,[16],inconclusive: 26.4 µM
same,AC50,[10],inconclusive: 0.0458 µM
same,outcome,[10],inactive
same,AC50,[6],inconclusive: 26.4 µM
CCCCCCCCn1sccc1=O,AC50,[10],inconclusive: 26 µM
C=CCC1=C(C)C(OC(=O)C2C(C=C(C)C)C2(C)C)CC1=O (stereo unspecified),AC50,[5],inconclusive: 0.27 µM
CC(C)(c1ccccc1)c1ccc(O)cc1,outcome,[15],inactive
Oc1ccc2ccc3cccc4ccc1c2c34,AC50,[12],inconclusive: 0.234 µM
N#CCCCCC#N,AC50,[16],inconclusive: 25 µM
same,outcome,[11],inactive
CN=C=S,AC50,[4],inconclusive: 12.4 µM
Nc1ccc(N=Nc2ccccc2)cc1,AC50,[10],inconclusive: 25 µM
same,AC50,[6],inconclusive: 25 µM
same,outcome,[14],inactive
C=CC(=O)OCCCCCC(C)C,AC50,[4],inconclusive: 40 µM
same,outcome,[10],inactive
CC(C)(C)C(O)(CCc1ccc(Cl)cc1)Cn1cncn1 (stereo unspecified),AC50,[10],inconclusive: 25 µM
same,AC50,[6],inconclusive: 1.4 µM
same,AC50,[11],inconclusive: 25 µM
Cc1ccc(O)c(C)c1,AC50,[16],inconclusive: 5.13 µM
same,outcome,[7],inactive
COC(=O)c1ccccc1CS(=O)(=O)NC(=O)Nc1nc(OC)cc(OC)n1,outcome,[10],inactive
CCC(C)c1cc([N+](=O)[O-])cc([N+](=O)[O-])c1O (stereo unspecified),AC50,[4],inconclusive: 45.9 µM
CO/C=C(/C(=O)OC)c1ccccc1COc1cccc(C(F)(F)F)n1,AC50,[15],inconclusive: 6.73 µM
C=CC1(C)OC(=O)N(c2cc(Cl)cc(Cl)c2)C1=O (stereo unspecified),AC50,[8],inconclusive: 25 µM
CC(C)(C)C(O)C(Oc1ccc(Cl)cc1)n1cncn1 (stereo unspecified),AC50,[8],inconclusive: 25 µM
Cc1ccc(N=C=O)cc1N=C=O,AC50,[14],active: 13.7 µM
CC(C)Oc1cc(-n2nc(C(C)(C)C)oc2=O)c(Cl)cc1Cl,outcome,[14],inactive

# Copied from the results shown for reference:
structure (smiles),measurement,setting,value
CO/C=C(/C(=O)OC)c1ccccc1Oc1cc(Oc2ccccc2C#N)ncn1,AC50,[10],active: 14.7 µM
same,outcome,[14],inactive
CSc1nc(NC(C)C)nc(NC(C)C)n1,outcome,[12],inactive
same,outcome,[6],inactive
N#Cc1cccnc1,AC50,[10],inconclusive: 6.96 µM
same,AC50,[6],inconclusive: 0.06 µM
Oc1cc(Cl)ccc1Oc1ccc(Cl)cc1Cl,AC50,[13],inconclusive: 6.94 µM
same,AC50,[4],inconclusive: 0.243 µM
same,AC50,[10],inconclusive: 25.5 µM
same,AC50,[15],inconclusive: 25.5 µM
same,outcome,[7],inactive
same,AC50,[6],active: 41.4 µM
CCCN(CCC)c1c([N+](=O)[O-])cc(S(N)(=O)=O)cc1[N+](=O)[O-],AC50,[16],inconclusive: 26.4 µM
same,AC50,[10],inconclusive: 0.0458 µM

# A portion from further up:
structure (smiles),measurement,setting,value
N#CCCCCC#N,outcome,[11],inactive
CN=C=S,AC50,[4],inconclusive: 12.4 µM
